This is one part of the list. Many values rest on one well or one pass, so single values are uncertain.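 Cells were imaged in 1,536-well plates, and nuclei stained with an antibody against cleaved PARP were counted against all DNA-stained nuclei to give the apoptosis fraction. Screening doses were chosen to leave most cells alive, and resting and induced cleaved-PARP levels differ strongly between cell lines.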
What follows are molecules tested on WM1745 (assay: cleaved PARP positive nuclei fraction relative to DMSO control; melanoma cells; higher = more apoptosis). Settings: library dose: low library concentration; 72 h.

Point of comparison: `Nc1cccc2c1CN(C1CCC(=O)NC1=O)C2=O` (stereo not given) [lenalidomide] + CN(C)S(=O)(=O)c1ccc2c(c1)/C(=C/c1cc3c([nH]1)CCCC3)C(=O)N2 [SU6656] (first compound 1 µM, partner dose 0.4 µM), “cleaved PARP positive nuclei fraction” value 108%. Against it:
- CC(C)(C)c1cnc(CSc2cnc(NC(=O)C3CCNCC3)s2)o1 + OCCn1cc(-c2cnc3nnn(Cc4ccc5ncccc5c4)c3n2)cn1 [PF04217903] (first compound 0.01 µM, partner dose 1 µM) — lower, 95.9%
- Cc1cc(N2CCOCC2)cc2[nH]c(-c3c(NC[C@@H](O)c4cccc(Cl)c4)cc[nH]c3=O)nc12 + O=C(O)C(=O)Nc1sc2c(c1C(=O)O)CCNC2 [TCS401] (first compound 0.2 µM, partner dose 1.66667 µM) — higher, 125%
- COc1cc(Nc2ncc(F)c(Nc3ccc4c(n3)NC(=O)C(C)(C)O4)n2)cc(OC)c1OC [Tamatinib] + Cn1cc(/C=C2\C(=O)Nc3cccnc32)c2ccccc21 [GW441756] (first compound 0.4 µM, partner dose 0.4 µM) — higher, 150%
- NC(=O)Nc1cc(-c2cccc(F)c2)sc1C(=O)N[C@H]1CCCNC1 + NCC(=O)Nc1ccc(-n2nc(C(F)(F)F)cc2-c2ccc3c(ccc4ccccc43)c2)cc1 [OSU03012] (first compound 0.02 µM, partner dose 1 µM) — lower, 82%
- Nc1cccc2c1CN(C1CCC(=O)NC1=O)C2=O (stereo not given) [lenalidomide] + O=C(Nc1ccccc1)c1cc([N+](=O)[O-])ccc1Cl [GW9662] (first compound 1 µM, partner dose 2 µM) — lower, 101%
- Cn1cncc1[C@@](N)(c1ccc(Cl)cc1)c1ccc2c(c1)c(-c1cccc(Cl)c1)cc(=O)n2C [tipifarnib] + COc1cc(N2CCC(N3CCN(C)CC3)CC2)ccc1Nc1ncc(Cl)c(Nc2ccccc2S(=O)(=O)C(C)C)n1 [NVP-TAE684] (first compound 0.01 µM, partner dose 0.08 µM) — higher, 475%
- C[C@]1(c2nc3c(C(N)=O)cccc3[nH]2)CCCN1 [Veliparib] + Cc1ccc(NC(=O)c2cccc(N(C)C)c2)cc1NC(=O)c1ccc(O)cc1 [ZM336372] (first compound 1.4 µM, partner dose 2 µM) — lower, 94.3%
- C=CCn1c(=O)c2cnc(Nc3ccc(N4CCN(C)CC4)cc3)nc2n1-c1cccc(C(C)(C)O)n1 + NC(=O)Nc1cc(-c2cccc(F)c2)sc1C(=O)N[C@H]1CCCNC1 [AZD7762] (first compound 0.02 µM, partner dose 0.02 µM) — higher, 117%
- COCC[n+]1c2c(n(Cc3cnccn3)c1C)C(=O)c1ccccc1C2=O + COc1cc(N2CCC(N3CCN(C)CC3)CC2)ccc1Nc1ncc(Cl)c(Nc2ccccc2S(=O)(=O)C(C)C)n1 [NVP-TAE684] (first compound 0.0004 µM, partner dose 0.08 µM) — lower, 94.2%
- Cn1nnc2c(C(N)=O)ncn2c1=O [temozolomide] + COc1cc2ncnc(Nc3ccc(Oc4ccccc4)cc3)c2cc1OC [SrcI1] (first compound 2 µM, partner dose 2 µM) — higher, 127%
- CC(C)(C)c1cnc(CSc2cnc(NC(=O)C3CCNCC3)s2)o1 + COC(=O)c1sccc1S(=O)(=O)Nc1ccc(Nc2ccccc2)cc1OC [GSK0660] (first compound 0.01 µM, partner dose 1 µM) — lower, 102%
- CC(=O)c1c(C)c2cnc(Nc3ccc(N4CCNCC4)cn3)nc2n(C2CCCC2)c1=O [palbociclib] + Clc1ccc(Nc2nnc(Cc3ccncc3)c3ccccc23)cc1 [vatalanib] (first compound 0.04 µM, partner dose 2 µM) — higher, 134%
- Cc1ccc(NC(=O)c2cccc(N(C)C)c2)cc1NC(=O)c1ccc(O)cc1 + Cc1cc(N2CCOCC2)cc2[nH]c(-c3c(NC[C@@H](O)c4cccc(Cl)c4)cc[nH]c3=O)nc12 [BMS536924] (first compound 2 µM, partner dose 0.2 µM) — lower, 103%
- O=C(CCCCCCC(=O)Nc1ccccc1)NO [vorinostat] + CC1(C)NC(=O)N(c2ccc([N+](=O)[O-])c(C(F)(F)F)c2)C1=O [nilutamide] (first compound 0.08 µM, partner dose 1 µM) — higher, 110%
